Earlier results in patent publication US6060043A, “Deodorant composition containing D-amino acid” (The Gillette Company, priority 1998, dated 2000).
At least one compound was matched to its structure with a doubt left.

Tested on: Staphylococcus cells
Details: as disclosed in U.S. Pat. No. 5,487,886; cited from earlier work

NC(C(=O)O)C(F)(F)F (stereo not shown) [trifluoroalanine]
Effect on the growth of Staphylococcus cells in culture: no inhibitory effect
